From the supplement of paper PMC12819154, “High-throughput peptide-centric local stability assay extends protein–ligand identification to membrane proteins, tissues and bacteria” (Nature Structural & Molecular Biology, 2025)
This is one part of the list. Small differences around the control level are noise.

By UniProt entry, the sequences of proteins in these tests, tags left out. Where a name states a change or a piece, a line headed by the entry shows the natural chain unless it says otherwise.
UniProt A8MXV4: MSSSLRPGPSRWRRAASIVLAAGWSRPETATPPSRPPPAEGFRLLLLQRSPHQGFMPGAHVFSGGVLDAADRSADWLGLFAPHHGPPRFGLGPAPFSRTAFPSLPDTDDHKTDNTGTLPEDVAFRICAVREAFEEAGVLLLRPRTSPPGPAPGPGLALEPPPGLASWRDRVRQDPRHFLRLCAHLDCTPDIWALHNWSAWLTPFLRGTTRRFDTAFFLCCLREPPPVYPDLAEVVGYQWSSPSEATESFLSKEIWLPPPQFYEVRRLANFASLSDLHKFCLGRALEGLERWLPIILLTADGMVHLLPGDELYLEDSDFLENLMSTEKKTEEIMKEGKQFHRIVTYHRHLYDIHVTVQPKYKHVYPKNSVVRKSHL
UniProt B2RUZ4: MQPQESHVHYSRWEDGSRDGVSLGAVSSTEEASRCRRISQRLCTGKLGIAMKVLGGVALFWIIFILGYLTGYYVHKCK
UniProt O14529: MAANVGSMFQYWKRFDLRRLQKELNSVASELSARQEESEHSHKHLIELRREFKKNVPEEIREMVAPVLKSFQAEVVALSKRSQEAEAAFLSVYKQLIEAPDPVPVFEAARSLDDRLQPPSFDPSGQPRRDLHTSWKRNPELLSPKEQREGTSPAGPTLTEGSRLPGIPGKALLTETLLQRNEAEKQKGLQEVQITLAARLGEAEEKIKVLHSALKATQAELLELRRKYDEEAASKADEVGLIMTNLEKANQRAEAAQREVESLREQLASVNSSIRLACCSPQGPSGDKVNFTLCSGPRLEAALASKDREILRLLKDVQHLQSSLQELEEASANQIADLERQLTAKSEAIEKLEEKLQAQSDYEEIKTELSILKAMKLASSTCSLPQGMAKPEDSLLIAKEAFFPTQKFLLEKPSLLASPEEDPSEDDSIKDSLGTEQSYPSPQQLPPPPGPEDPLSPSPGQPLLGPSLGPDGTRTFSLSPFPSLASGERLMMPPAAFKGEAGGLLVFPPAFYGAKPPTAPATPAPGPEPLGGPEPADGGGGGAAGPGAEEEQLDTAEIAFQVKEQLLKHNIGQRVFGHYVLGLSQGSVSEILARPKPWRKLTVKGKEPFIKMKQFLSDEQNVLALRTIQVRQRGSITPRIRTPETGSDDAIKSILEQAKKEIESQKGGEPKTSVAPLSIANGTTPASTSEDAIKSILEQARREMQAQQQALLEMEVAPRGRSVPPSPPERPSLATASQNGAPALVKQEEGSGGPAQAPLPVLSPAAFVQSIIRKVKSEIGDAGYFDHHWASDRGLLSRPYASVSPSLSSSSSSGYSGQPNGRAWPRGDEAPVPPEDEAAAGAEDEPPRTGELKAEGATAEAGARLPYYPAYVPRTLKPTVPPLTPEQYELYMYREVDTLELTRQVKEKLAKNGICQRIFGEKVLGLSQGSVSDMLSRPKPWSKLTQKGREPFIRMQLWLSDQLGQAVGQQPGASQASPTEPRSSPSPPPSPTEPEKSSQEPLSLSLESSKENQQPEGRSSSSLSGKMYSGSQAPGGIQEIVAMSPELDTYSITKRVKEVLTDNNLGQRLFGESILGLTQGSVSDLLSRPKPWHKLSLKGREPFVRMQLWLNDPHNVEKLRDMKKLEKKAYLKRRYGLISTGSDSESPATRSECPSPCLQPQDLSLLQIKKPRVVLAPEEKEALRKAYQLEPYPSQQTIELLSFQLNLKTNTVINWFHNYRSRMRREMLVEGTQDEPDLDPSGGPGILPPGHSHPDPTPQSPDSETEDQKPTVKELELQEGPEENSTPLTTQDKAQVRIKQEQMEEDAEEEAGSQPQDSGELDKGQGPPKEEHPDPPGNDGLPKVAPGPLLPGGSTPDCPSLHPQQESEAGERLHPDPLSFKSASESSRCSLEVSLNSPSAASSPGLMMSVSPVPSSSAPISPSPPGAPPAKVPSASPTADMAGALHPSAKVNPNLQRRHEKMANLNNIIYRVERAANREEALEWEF
UniProt O15392, whole entry: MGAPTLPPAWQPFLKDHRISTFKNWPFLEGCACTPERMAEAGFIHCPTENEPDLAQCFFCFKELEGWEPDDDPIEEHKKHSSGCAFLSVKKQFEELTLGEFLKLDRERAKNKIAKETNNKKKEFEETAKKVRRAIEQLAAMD
UniProt O14641: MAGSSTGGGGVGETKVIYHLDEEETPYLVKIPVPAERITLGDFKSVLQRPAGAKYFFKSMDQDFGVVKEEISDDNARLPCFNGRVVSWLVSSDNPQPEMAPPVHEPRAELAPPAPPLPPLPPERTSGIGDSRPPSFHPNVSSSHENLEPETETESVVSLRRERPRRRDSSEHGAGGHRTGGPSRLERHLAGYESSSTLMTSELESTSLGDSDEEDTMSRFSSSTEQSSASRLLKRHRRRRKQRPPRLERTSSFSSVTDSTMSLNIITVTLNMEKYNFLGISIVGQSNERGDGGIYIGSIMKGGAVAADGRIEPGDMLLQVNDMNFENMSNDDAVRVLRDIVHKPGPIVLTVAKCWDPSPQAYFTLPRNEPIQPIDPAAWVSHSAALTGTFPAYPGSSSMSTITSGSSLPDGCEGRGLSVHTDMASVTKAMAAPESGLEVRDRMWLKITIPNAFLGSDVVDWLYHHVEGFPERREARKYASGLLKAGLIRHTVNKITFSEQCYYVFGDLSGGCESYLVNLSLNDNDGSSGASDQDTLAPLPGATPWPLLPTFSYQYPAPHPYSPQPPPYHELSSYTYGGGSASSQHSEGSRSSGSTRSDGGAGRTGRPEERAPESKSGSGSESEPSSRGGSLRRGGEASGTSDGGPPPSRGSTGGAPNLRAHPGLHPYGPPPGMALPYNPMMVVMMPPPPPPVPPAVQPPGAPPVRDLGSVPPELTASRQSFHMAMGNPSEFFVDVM
UniProt A9UHW6: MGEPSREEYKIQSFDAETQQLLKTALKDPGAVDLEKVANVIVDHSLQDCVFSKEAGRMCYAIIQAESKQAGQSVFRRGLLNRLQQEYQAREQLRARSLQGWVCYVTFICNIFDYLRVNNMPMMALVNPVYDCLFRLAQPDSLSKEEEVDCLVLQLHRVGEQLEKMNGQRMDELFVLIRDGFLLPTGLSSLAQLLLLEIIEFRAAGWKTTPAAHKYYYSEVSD
UniProt O15014: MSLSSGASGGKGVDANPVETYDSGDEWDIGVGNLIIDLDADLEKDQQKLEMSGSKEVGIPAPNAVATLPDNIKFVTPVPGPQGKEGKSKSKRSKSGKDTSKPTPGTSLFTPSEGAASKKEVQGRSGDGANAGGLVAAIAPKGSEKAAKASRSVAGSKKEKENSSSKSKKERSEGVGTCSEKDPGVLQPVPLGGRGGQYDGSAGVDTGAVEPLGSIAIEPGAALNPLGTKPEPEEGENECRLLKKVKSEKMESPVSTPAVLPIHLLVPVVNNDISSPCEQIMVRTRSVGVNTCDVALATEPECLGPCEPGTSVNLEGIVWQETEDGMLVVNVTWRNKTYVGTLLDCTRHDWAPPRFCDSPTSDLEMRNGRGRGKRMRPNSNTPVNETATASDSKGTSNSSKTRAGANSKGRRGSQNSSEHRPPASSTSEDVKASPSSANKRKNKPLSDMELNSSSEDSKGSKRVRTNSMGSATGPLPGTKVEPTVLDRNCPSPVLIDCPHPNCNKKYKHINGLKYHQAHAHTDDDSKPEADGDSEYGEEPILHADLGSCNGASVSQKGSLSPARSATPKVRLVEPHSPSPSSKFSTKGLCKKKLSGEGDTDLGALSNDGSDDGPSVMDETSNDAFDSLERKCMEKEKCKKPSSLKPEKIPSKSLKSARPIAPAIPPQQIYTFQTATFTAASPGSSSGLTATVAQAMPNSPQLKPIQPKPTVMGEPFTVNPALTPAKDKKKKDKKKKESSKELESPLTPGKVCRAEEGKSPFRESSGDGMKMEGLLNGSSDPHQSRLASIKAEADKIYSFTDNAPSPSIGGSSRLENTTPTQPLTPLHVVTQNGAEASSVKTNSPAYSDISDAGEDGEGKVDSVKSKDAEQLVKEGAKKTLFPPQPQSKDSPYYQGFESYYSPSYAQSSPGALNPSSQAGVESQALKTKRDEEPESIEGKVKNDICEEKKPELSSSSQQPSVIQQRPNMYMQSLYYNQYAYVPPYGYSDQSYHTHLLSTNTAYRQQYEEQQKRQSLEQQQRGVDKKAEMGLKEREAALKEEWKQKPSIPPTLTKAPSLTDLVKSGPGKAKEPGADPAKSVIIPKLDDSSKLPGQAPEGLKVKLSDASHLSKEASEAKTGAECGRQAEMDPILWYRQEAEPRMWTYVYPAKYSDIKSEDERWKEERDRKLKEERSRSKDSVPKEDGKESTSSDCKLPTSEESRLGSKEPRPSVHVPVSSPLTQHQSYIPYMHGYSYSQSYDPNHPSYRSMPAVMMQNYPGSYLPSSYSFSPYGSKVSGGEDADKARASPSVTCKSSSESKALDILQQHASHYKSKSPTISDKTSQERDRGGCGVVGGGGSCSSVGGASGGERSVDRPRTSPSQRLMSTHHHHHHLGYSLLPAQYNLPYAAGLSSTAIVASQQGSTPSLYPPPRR
UniProt H7BZ55: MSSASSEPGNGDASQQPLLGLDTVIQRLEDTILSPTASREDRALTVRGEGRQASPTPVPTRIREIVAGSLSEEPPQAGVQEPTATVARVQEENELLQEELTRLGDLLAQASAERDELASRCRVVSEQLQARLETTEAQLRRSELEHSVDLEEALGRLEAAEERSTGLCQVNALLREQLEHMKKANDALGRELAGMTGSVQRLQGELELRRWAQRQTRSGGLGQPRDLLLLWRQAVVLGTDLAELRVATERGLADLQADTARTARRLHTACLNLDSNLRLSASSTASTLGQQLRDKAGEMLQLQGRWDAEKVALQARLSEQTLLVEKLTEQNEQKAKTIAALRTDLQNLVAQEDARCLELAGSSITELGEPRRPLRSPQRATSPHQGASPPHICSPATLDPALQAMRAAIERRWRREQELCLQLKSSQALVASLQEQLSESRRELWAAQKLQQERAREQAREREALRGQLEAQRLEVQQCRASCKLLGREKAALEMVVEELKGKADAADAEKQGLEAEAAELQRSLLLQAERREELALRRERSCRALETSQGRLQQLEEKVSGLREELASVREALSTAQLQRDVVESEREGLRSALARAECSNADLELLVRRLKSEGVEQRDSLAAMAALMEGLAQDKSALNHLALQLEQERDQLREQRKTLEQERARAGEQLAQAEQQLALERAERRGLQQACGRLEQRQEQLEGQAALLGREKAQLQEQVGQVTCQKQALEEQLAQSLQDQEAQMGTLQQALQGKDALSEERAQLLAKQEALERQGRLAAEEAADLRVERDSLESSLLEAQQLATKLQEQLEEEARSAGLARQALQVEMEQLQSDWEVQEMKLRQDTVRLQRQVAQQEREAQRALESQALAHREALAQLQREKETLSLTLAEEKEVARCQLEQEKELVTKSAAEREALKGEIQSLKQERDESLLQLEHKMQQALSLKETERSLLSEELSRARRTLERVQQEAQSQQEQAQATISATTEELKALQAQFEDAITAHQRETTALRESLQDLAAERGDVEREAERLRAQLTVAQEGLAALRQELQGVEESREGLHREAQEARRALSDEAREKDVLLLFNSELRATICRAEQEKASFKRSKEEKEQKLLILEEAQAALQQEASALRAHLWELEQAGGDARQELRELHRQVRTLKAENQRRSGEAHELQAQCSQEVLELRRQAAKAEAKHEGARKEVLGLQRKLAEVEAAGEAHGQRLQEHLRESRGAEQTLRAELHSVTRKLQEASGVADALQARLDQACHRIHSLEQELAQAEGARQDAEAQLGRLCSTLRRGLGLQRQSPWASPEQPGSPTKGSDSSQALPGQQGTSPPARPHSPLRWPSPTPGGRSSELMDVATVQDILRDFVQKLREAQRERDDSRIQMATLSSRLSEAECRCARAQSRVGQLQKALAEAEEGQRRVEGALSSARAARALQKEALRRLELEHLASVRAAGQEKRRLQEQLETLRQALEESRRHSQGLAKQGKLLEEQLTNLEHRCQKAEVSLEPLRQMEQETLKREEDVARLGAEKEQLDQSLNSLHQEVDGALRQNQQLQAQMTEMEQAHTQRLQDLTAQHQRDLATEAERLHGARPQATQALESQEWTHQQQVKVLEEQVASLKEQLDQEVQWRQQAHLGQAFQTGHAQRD
UniProt O14770: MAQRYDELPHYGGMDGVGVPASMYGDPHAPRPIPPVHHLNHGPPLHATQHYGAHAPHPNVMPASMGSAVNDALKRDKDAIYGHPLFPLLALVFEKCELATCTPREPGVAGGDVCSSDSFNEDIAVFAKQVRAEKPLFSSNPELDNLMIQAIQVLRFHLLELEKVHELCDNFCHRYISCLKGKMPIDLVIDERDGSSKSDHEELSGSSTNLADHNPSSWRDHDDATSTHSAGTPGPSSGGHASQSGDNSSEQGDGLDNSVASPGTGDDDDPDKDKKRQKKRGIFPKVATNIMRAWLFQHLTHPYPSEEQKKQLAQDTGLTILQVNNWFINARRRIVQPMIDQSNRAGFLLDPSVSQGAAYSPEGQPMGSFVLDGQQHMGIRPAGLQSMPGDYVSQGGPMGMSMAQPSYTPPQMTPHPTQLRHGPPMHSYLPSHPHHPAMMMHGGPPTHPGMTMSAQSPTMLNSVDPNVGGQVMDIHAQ

Compound: CN[C@@H]1C[C@H]2O[C@@](C)([C@@H]1OC)n1c3ccccc3c3c4c(c5c6ccccc6n2c5c31)C(=O)NC4 [staurosporine]
Assay: log2 fold change of tryptic peptide abundance, ligand vs vehicle (limited proteolysis) (log2 ratio); higher = more trypsin-susceptible (destabilized)
Conditions: ligand concentration: 20 uM; sample: K562 cleared lysate; digestion: 4 min, 22 C (HT-PELSA RT4min, Orbitrap Astral)

Row | Target | log2 fold change
1 | NUDT19 (peptide sequence: SPHQGFMPGAHVFSGGVLDAADR, peptide start residue: 50) (UniProt A8MXV4) | -0.816
2 | SMIM1 (peptide sequence: MQPQESHVHYSR, peptide start residue: 1) (UniProt B2RUZ4) | -0.115
3 | UniProt O14529 (peptide sequence: VVLAPEEK, peptide start residue: 1249) | 0.036
4 | NFIB (peptide sequence: DQDMSSPTTMK, peptide start residue: 307) (UniProt O00712) | 0.367
5 | UniProt O00444 (peptide sequence: VIQDAEERPHSR, peptide start residue: 360) | -0.107
6 | KIF3B (peptide sequence: ERPDTGVYVK, peptide start residue: 168) (UniProt O15066) | -0.556
7 | SETD1A (peptide sequence: RSENSYQDAFSR, peptide start residue: 300) (UniProt O15047) | -0.164
8 | ACOT7 (peptide sequence: GCVITISGR, peptide start residue: 287) (UniProt O00154) | -0.195
9 | KRIT1 (peptide sequence: EASLFIVPSVVK, peptide start residue: 107) (UniProt O00522) | 0.292
10 | NVL (peptide sequence: KGNPDSVSNTPEMEQR, peptide start residue: 129) (UniProt O15381) | -0.336
11 | ZSWIM8 (peptide sequence: RAHNDHPNNFSR, peptide start residue: 1681) (UniProt A7E2V4) | -0.503
12 | UniProt C9JQI7 (peptide sequence: EKEDAICK, peptide start residue: 608) | 0.0188
13 | BIRC5 (peptide sequence: KQFEELTLGEFLK, peptide start residue: 91) (UniProt O15392) | -0.189
14 | UniProt O15040 (peptide sequence: VHVQQAEKLPGATVSETR, peptide start residue: 375) | -0.503
15 | DVL2 (peptide sequence: VIYHLDEEETPYLVK, peptide start residue: 16) (UniProt O14641) | -0.182
16 | PDHX (peptide sequence: EHIPGTLR, peptide start residue: 174) (UniProt O00330) | 0.167
17 | PIK3C2A (peptide sequence: IKEVSVFTYHK, peptide start residue: 1424) (UniProt O00443) | 0.528
18 | FCHO1 (peptide sequence: EKPGPLDFEAYSAAALQEAMKR, peptide start residue: 261) (UniProt O14526) | 0.14

2 entries from above, reformatted:
NUDT19 (peptide sequence: SPHQGFMPGAHVFSGGVLDAADR, peptide start residue: 50) (UniProt A8MXV4)
  log2 fold change: -0.816
UniProt O15040 (peptide sequence: VHVQQAEKLPGATVSETR, peptide start residue: 375)
  log2 fold change: -0.503

The results go on.

Row | Target | log2 fold change
19 | MIF4GD (peptide sequence: GEPSREEYK, peptide start residue: 2) (UniProt A9UHW6) | -0.118
20 | ZNF609 (peptide sequence: NKPLSDMELNSSSEDSK, peptide start residue: 442) (UniProt O15014) | -0.353
21 | CDK2AP1 (peptide sequence: EIRPTYAGSK, peptide start residue: 76) (UniProt O14519) | 0.242
22 | IPO8 (peptide sequence: QLVNREDR, peptide start residue: 880) (UniProt O15397) | 0.215
23 | CROCC2 (peptide sequence: RWAQRQTR, peptide start residue: 210) (UniProt H7BZ55) | 0.0567
24 | UniProt O14602 (peptide sequence: AYGELPEHAK, peptide start residue: 105) | 0.13
25 | FHAD1 (peptide sequence: ETLEEERK, peptide start residue: 703) (UniProt B1AJZ9) | -0.0538
26 | SEC16A (peptide sequence: EHSAFGDRPEK, peptide start residue: 1303) (UniProt O15027) | 0.618
27 | SMCHD1 (peptide sequence: EKDQLSQSIVMYK, peptide start residue: 1629) (UniProt A6NHR9) | -0.175
28 | GOLIM4 (peptide sequence: EADPESEADR, peptide start residue: 533) (UniProt O00461) | -1.21
29 | MEIS2 (peptide sequence: SDHEELSGSSTNLADHNPSSWR, peptide start residue: 198) (UniProt O14770) | 0.426
30 | CHD2 (peptide sequence: QKELEEIYMLPR, peptide start residue: 1061) (UniProt O14647) | -0.178
31 | LSM1 (peptide sequence: SIDQFANLVLHQTVER, peptide start residue: 34) (UniProt O15116) | 0.118
32 | STX16 (peptide sequence: LTDAFLLLR, peptide start residue: 6) (UniProt O14662) | -0.295
33 | UniProt B2RPK0 (peptide sequence: WKTMSAKEK, peptide start residue: 49) | 0.303
34 | ATOX1 (peptide sequence: PKHEFSVDMTCGGCAEAVSR, peptide start residue: 2) (UniProt O00244) | -0.505
35 | MYO1C (peptide sequence: VNSININQGSITFAGGPGR, peptide start residue: 1013) (UniProt O00159) | -0.266
36 | CASC3 (peptide sequence: LWKDEGR, peptide start residue: 211) (UniProt O15234) | -0.52
